Test results taken from PMC4995099, “Drosophila Nanos acts as a molecular clamp that modulates the RNA-binding and repression activities of Pumilio”.
Positions count from the first letter of the chain named. Results are given in words; binding and its absence hold for the method and conditions named.

Legend:
Assay in all cases: native gel or EMSA; hb NRE2 RNA (1 nM Cy5-labelled, or 0.3 nM 5´-32P-labelled); Nos and Pum at the concentrations shown above the gels, NosZC titrated 0-1000 nM into 100 nM Pum, or Pum titrated 0-200 nM at 400 nM NosZC; 50 mM Tris-HCl pH 7.6, 150 mM NaCl, 2 mM DTT, 3 hr at 4°C; 5% native polyacrylamide TBE gel; read-out is the shift of the labelled RNA; both purified
[1] = target: T1, Pum mutR7 (RNA-binding defective; S1342A N1343A E1346A) (Drosophila melanogaster) (UniProt P25822)
T1 sequence: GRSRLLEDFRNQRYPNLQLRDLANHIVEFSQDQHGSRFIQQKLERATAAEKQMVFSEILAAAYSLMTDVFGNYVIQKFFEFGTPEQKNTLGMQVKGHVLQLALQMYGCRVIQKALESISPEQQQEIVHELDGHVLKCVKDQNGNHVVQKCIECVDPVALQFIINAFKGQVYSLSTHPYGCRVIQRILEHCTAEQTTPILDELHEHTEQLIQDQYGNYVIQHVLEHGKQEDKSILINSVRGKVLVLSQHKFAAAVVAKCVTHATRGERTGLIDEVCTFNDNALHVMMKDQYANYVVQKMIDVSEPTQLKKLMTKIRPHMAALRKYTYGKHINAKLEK

[2] = target: T2, Pum Q1337A (Drosophila melanogaster) (UniProt P25822)
T2 sequence: T1 sequence with Q247A, A252S, A253N, A256E

[3] = target: T3, Pum F1367S (Drosophila melanogaster) (UniProt P25822)
T3 sequence: T1 sequence with A252S, A253N, A256E, F277S

Measured: binding

Nos ZC (aa289-401) with C-terminal V5 epitope, EMSA construct (Drosophila melanogaster) (domain or fragment)
no binding: all assays above
